Laboratory results published in patent US10624916B2, “Nutritional formulations using human milk oligosaccharides for modulating inflammation” (ABBOTT LABORATORIES, priority 2012, dated 2020).
For at least one compound, name, drawing or mass did not settle the structure.

Test system: platelet neutrophil complex (PNC) formation
Assay: in vitro simulation of PNC formation (ADP-stimulated, % CD11b+CD42a+ events)
Type: cell-based, human
Settings: 125 μg/mL; 15 minute ingredient incubation; n=2-3 individuals; FIG. 1
Description: Data was generated using an in vitro simulation of PNC formation with a 15 minute ingredient incubation period.
Test concentration was 125 μg/mL for all ingredients tested. Cells were incubated with test ingredients or medium alone (ADP) for 15 minutes. ADP (10 μM) was added to each tube and incubated for 15 minutes. The ADP alone contained no test ingredient. Data is expressed as % CD11b+CD42a+ in the tested conditions as a percent of those events that were CD11b+CD42a+ under ADP stimulation.

`CC(=O)N[C@H]1[C@H]([C@H](O)[C@H](O)CO)OC(O)(C(=O)O)C[C@@H]1O` (stereo partly shown) [sialic acid (SL), sialic acid, reference compound] was tested. Which “effect on PNC formation (in words)” value did it give?
The value was “neither does”.
